The results in this text go back to paper PMC11111765.

For this experiment, the target named is T1, BTG3 of the co-IP with GFP-TRIM65 and its deletion mutants (UniProt Q14201).
T1 sequence: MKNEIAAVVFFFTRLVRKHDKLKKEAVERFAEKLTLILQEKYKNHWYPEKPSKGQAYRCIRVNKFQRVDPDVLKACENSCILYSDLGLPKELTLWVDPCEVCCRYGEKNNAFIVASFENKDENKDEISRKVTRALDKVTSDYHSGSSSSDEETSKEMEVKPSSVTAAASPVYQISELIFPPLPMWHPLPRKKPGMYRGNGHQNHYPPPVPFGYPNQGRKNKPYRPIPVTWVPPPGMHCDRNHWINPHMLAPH
Put plainly: co-IP; GFP-TRIM65 and its deletion mutants with BTG3, following MG132 treatment; cell line not stated.

Results are given in words; binding and its absence hold for the method and conditions named. In cells and extracts the contact can be indirect. Binding can be weak; no strength is given. Tags and fused reporters may be left off the sequences shown.

For “GFP-SPRY (SPRY domain of TRIM65) (human) (domain or fragment)”, the binding result was “binds”.
